Source: the supplement of paper PMC10338343
± gives the standard deviation. Only a part is listed here, and it is no random draw. Many entries were measured with a wide error.

system: MILI (PIWIL2) piRISC loaded with piRNA #1 (26 nt); assay: pre-steady-state target cleavage rate (min^-1); MIWI and MILI are mouse PIWI proteins and EfPiwi is from a freshwater sponge; tags in brackets are library labels; higher = faster piRNA-guided slicing of the target; conditions: guide: piRNA #1 5'p-UGAGGUAGUAGGUUGUAUAGUAUCCA; auxiliary factor: 500 nM mouse GTSF1
Summary of the method: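 Sequencing of uncleaved targets, normalised to depth and to weakly complementary targets, was the readout of this Cleave-'n-Seq assay. A transcribed, DNA-blocked target RNA library (0.1 nM) was mixed with 1 nM active affinity-purified piRISC carrying one synthetic guide, with or without 500 nM GTSF1 partner protein, in HEPES–potassium acetate buffer at 33 °C for 0–8 or 0–960 min. Three trials were pooled, k3 was capped at 0.0001 min^-1, and a burst-and-steady-state fit gave the pre-steady-state cleavage rate.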

Sequence	pre-steady-state target cleavage rate
GGAGACGAUACUAUACAAGCUACAACCUCA	0.211 ± 0.018
GGAGACGAAACUAUACAUCCUACUACCUCA	0.255 ± 0.026
GGAGACCUAUGAUAUGUUGCAACUUCCUCA	0.000105 ± 0.021
GGAGACGAUACUAUACAACCUAGUACCUGA	0.00155 ± 0.0061
GGAGACCUAUGAUUACAACCUACUAGGACA	0.000193 ± 0.034
GGAGACCUAACCAUACAACCUACUACCUCA	0.12 ± 0.072
GGAGACCUUUCUAUACAACCUACUACCUCA	0.0895 ± 0.0097
GGAGAGCGAUACUAUACAACCUACUACCUCA	0.249 ± 0.02
GGAGAGGAUACUAUACAAGCUACUACCACA	0.243 ± 0.019
GGAGACCUAACUAUACAACCUUCUAGCUCA	0.0014 ± 0.0091
GGAGACCUAACUAUCCAACCUACUACCUCA	0.208 ± 0.038
GGAGACCAUACUAUACAACCUACUAACCUCA	0.226 ± 0.019
GGAGACCUAUGAUAUGUACCGACUACCUCA	0.000252 ± 0.0088
GGAGACCAUACAUAACAACCUACUACCUCA	0.0246 ± 0.0068
GGAGACCUAUGAUAUGAACCCUACUACCUCA	0.000265 ± 0.01
GGAGACCUAUGAUAUGAACCUAUCUACCUCA	0.000144 ± 0.02
GGAGACCAUACUAUACUUGGAUGAUGGAGA [g15:g23:cont:t1A]	< 0.0001
GGAGACCUAACUAUAGUACCUACUACCUCA	0.122 ± 0.022
GGAGACCUAUGAUAUCAACCUAGUACCACA	0.000565 ± 0.011
GGAGUGGAUACUUAUCAACCUACUACCUCA	0.149 ± 0.011
GGAGACCUAUGAAUACAACCUCACUACCUCA	0.00378 ± 0.0031
GGAGUGGAUACCUAUACAACCUACUACCUCA	0.0993 ± 0.019
GGAGACCUAUGAUAUGUUCGUACAACCUCA	0.000137 ± 0.02
GGAGACCUAUGAUAUGUACCUACUAACCUCA	0.00019 ± 0.01

Looked up above:
In pre-steady-state target cleavage rate, GGAGACCUAUGAAUACAACCUCACUACCUCA is entered as 0.00378 ± 0.0031
In pre-steady-state target cleavage rate, GGAGACGAUACUAUACAAGCUACAACCUCA is entered as 0.211 ± 0.018
